Taken from: PubChem BioAssay AID686943 (Drosophila RNAi Screening Center, 2013)
The deposit covers about 23,000 reagents; below is a random part of those that have a named target and a result. 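Extra replicates exist only for a retested subset of genes; insulin dose and duration not given; both raised and lowered dpERK matter.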 Reagents against one gene are numbered here. Not all columns of the deposit are shown. Not given: the amount of reagent, the time to read-out.

Aim: 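Knockdowns that increase or decrease active ERK after insulin receptor stimulation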 (primary screen)
Cells: Drosophila S2R+ haemocyte-like cells expressing YFP-tagged ERK (Rolled)
Knock-down reagent: long dsRNA against Drosophila genes
Challenge: insulin stimulation versus unstimulated cells; dose and duration not given
Measurement: 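Per-plate z-scores of phospho-ERK immunostaining normalised to YFP-tagged ERK, measured with and without insulin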
Scale: replicate 1, z-score of dpERK with insulin and replicate 2, z-score of dpERK with insulin: higher = more active ERK per ERK-YFP after insulin; replicate 1, z-score of dpERK under basal conditions: higher = more basal active ERK per ERK-YFP

predicted target	reagent	replicate 1, z-score of dpERK with insulin	replicate 2, z-score of dpERK with insulin	replicate 1, z-score of dpERK under basal conditions
Snap29	1	0.16	0.91	0.59
ScsbetaG	1	-0.29	0.45	1.11
insb	1	-0.25	0.26	-0.57
CG15594	1	-0.19	-0.56	-0.23
Polr3H	1	0.99	0.25	-0.09
JYalpha	1	0.57	0.12	-0.45
ND-23	1	0.15	-0.92	-0.17
nAChRalpha3	1	-0.14	0.08	0.05
Mip	1	-0.05	1.13	0.63
Snap25	1	0.52	0.16	1.03
Snap25	2	-0.35	0.04	-0.01
RpL40	1	-2.54	-2.32	-1.35
CG15731	1	0.61	0.73	1.56
CG15731	2	0.85	-0.65	1.07
mei-9	1	-0.51	-0.49	-0.46
FANCI	1	0.59	0.04	-0.06
Mau2	1	-0.51	-0.23	-0.86
CG12384	1	0.86	-0.31	0.59
CG7988	1	0.36	0.12	0.98
CG42820	1	-0.27	1.6	-0.13
Drp1	1	0.04	-0.36	-0.15
Men-b	1	-0.05	-0.39	-0.04
Cog4	1	1.25	0.97	-1.17
CG31693	1	0.56	-0.37	-0.16
CG33116	1	-1	-0.75	-2.68
CG30458	1	1.84	0.36	0.35
Mal-A8	1	-1.03	-0.36	0.2
AMPKalpha	1	-0.21	-0.61	0.61
Pvf2	1	0.78	-0.05	0.02
Pvf2	2	0.33	0.02	-0.39
CG12910	1	0.86	0.31	-0.56
tty	1	1.2	-0.78	-0.53
CG9899	1	-0.82	1.06	0.05
ND-B22	1	-0.76	-1.5	-0.83
Ythdc1	1	-1.01	-1.39	5.44
PGRP-SC1b	1	0.05	0.33	-0.3
Wdr33	1	2.79	2.42	3.25
CG12547	1	0.6	0.45	0.68
CG32305	1	-0.92	-0.21	0.42
CG7974	1	0.23	-0.15	0.23
CG18585	1	0.25	-0.16	0.71
CG15096	1	0.6	0.15	-1.79
kl-2	1	-0.05	-0.5	-0.27
Set1	1	-0.58	-1.92	-0.24
Set1	2	-1.32	-1.39	-0.71
Cpr73D	1	-0.25	-0.14	-0.06
Pburs	1	0.1	0.06	0.31
CG2224	1	-0.77	-0.27	-0.05
Hinfp	1	0	0.21	1.37
CG42841	1	-0.9	-0.39	-0.44
CG9109	1	-0.43	0.09	-0.36
CG11619	1	1.02	0.38	2.03
Dbx	1	0.07	0.84	0.71
Dbx	2	0.75	1.18	-0.01
Dbx	3	1.07	-0.18	1.49
swi2	1	-0.21	-0.63	1.17
SmE	1	0.84	0.25	-1.76
